Our source for the binding signal values is PMC7819943, “Rice protein-binding microarrays: a tool to detect cis-acting elements near promoter regions in rice”.

By UniProt entry, the sequences of proteins in these tests, tags left out.
UniProt Q0JBA9, entry or part of it: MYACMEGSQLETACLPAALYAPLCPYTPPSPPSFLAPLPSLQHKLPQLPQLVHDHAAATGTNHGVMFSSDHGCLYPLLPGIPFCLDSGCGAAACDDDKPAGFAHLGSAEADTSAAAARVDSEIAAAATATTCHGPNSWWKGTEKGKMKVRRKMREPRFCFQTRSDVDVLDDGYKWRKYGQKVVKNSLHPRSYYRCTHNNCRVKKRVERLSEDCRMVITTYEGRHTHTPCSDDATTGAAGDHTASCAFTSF

This is one part of the list.

This test concerns the target OsWRKY34 (Oryza sativa, UniProt Q0JBA9 1-250). Put plainly: protein-binding microarray (RPBM); PBS, 2% BSA, 51.3 ng/ul salmon testes DNA, 50 uM zinc acetate, 200 nM TF, 25 C, 1 h; high values mean tight binding. To be noted: protein: recombinant; tags: N-terminal polyhistidine and DsRed monomer fusion (pET32a); label: CyDye5-dUTP incorporated in the synthesized complementary strand; 3' TTTTT single-stranded linker to array surface; dsDNA, one strand shown. In short, it runs like this: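 Using Ni–NTA, transcription factors fused N-terminally to polyhistidine and DsRed were purified after expression in E. coli BL21-CodonPlus. These were incubated at 200 nM with a blocked, double-stranded custom Agilent array for 1 h at 25 °C in a buffer containing 50 µM zinc acetate, and the array was washed. The binding signal is per-feature fluorescence intensity (arbitrary units) on an Axon 4000B scanner.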
For the sequence “AATCGGATTGTGCGATGATCAACTTGGCCTCTTTTCATGCCGGAGTCACCTAGTGCAG”, the binding signal was 8060 fluorescence intensity (a.u.).

“AAACAGATTAAAATTATCTCGGTTTCTATTAGCATGTTTTCGGAGTCACCTAGTGCAG”: the binding signal was 8540 fluorescence intensity (a.u.). For “ATCATTCAGGTACATCAATTACCAACCACTGAATGTTTGTCGGAGTCACCTAGTGCAG”, the binding signal is 8210 fluorescence intensity (a.u.). In the case of “CGCTCGCCATCTTCCCGACCCTCGCCGGCCGCCTTGTCACCGGAGTCACCTAGTGCAG”, the binding signal was 8450 fluorescence intensity (a.u.). Regarding “CTTCTTCTCGGCTGATTGCTCTTTTTTCCCAGATTTGTCTCGGAGTCACCTAGTGCAG”, the binding signal is 13100 fluorescence intensity (a.u.). As for “GATCCGCGAGATCTCCGTCGCCGGCTCATGCCACTGGTCGCGGAGTCACCTAGTGCAG”, the binding signal was 8240 fluorescence intensity (a.u.).

As for “AACTTGCGAAAATTTGACTATCAATTAGCTGGGCGATTGACGGAGTCACCTAGTGCAG”, the binding signal is 32700 fluorescence intensity (a.u.).

Take “GGAATCCTTTCCACCATCCCACTTCCACCTTTCTTCTTCTCGGAGTCACCTAGTGCAG”: the binding signal is 8970 fluorescence intensity (a.u.). The value for “GTTGGTGTCCATCCGTTTCCGAGCCATTTTCATCCCTAATCGGAGTCACCTAGTGCAG” was 11600 fluorescence intensity (a.u.); that for “TTCACCTACCCTTTACATTACCACTCGACTACACATTTATCGGAGTCACCTAGTGCAG” was 9160 fluorescence intensity (a.u.); that for “GCCCACATGCACGTACTTAACGCCCACCTGCACTCGACGTCGGAGTCACCTAGTGCAG” was 9370 fluorescence intensity (a.u.).

For the sequence “GCGAACCTGCCTCCTCGTCGTCGTCGTGGTCTATATATTACGGAGTCACCTAGTGCAG”, the binding signal is 9230 fluorescence intensity (a.u.).

“CAGCAAGAGTTTCCACCTCTACACAATCCTGTTGTATCTACGGAGTCACCTAGTGCAG”: the binding signal is 8240 fluorescence intensity (a.u.).

Consider “TTGCTGCATCCGTTACTCCGTTAGGGTTGGGGAATTTGGTCGGAGTCACCTAGTGCAG”, for which the binding signal is 12900 fluorescence intensity (a.u.).

In the case of “TGTCAGTTGACCGCTATTAATTAGTTCAGGCCGTGTTTAGCGGAGTCACCTAGTGCAG”, the binding signal is 9060 fluorescence intensity (a.u.).

As to “CGGGATACAATATACTATTAGGGGTGAAAATGAATTAGATCGGAGTCACCTAGTGCAG”, the binding signal was 9250 fluorescence intensity (a.u.). Regarding “GCCTTAACCTTGATACTGATAACAGTTTGTTTGTTCCCAACGGAGTCACCTAGTGCAG”, the binding signal is 10800 fluorescence intensity (a.u.). As for “GGTTGGTCCTGGTTTTGGAGGTAGGTAAATTTTGGGACCACGGAGTCACCTAGTGCAG”, the binding signal is 9300 fluorescence intensity (a.u.). “GTTTGATTTTGGGAGCTCCAGTTGTTTTCTTCTCCTCCTTCGGAGTCACCTAGTGCAG”: the binding signal is 10100 fluorescence intensity (a.u.).

Take “GGAGGTGGTGCAGAATGCCTGGGAGTCGGTGCAGTAGGGGCGGAGTCACCTAGTGCAG”: the binding signal is 8450 fluorescence intensity (a.u.). “ATTCCGATGGCTATATACGGTATTCCGCGTGCACACTAACCGGAGTCACCTAGTGCAG”: the binding signal is 10500 fluorescence intensity (a.u.). With “TTCTTTCTTTTTTCTTTCTCTCCAAGGCTAATGAATGTTTCGGAGTCACCTAGTGCAG”, the binding signal was 8560 fluorescence intensity (a.u.).

For “TAGGAACCTATTTTCCATGCGCACACATCTCAAAATGTTACGGAGTCACCTAGTGCAG”, the binding signal is 8920 fluorescence intensity (a.u.). With “TAATAGGTGGGCGGTGGATTTTTCGCCGTGGTGCTCTTTACGGAGTCACCTAGTGCAG”, the binding signal was 9870 fluorescence intensity (a.u.).

On to “CTCACTTCGACCCCTGTTCGCTTCACCCGCCGCCGCCATGCGGAGTCACCTAGTGCAG”, for which the binding signal is 8220 fluorescence intensity (a.u.). For the sequence “GTATTTTGCAATCCTCTGTTTTACACTTGCATTCCTATCCCGGAGTCACCTAGTGCAG”, the binding signal was 11900 fluorescence intensity (a.u.). As to “CCCACCCACCTCTCCACATTCCGTTCCGCTGGCGTCCAAACGGAGTCACCTAGTGCAG”, the binding signal is 9280 fluorescence intensity (a.u.).

With “CTCTTCCACAAGATTACCTCCATGCATTGGATGTTGTGTTCGGAGTCACCTAGTGCAG”, the binding signal was 8030 fluorescence intensity (a.u.). In the case of “GGGTTTTCCACGTTAAATCTCGTGTCTTCTGTGTTTGATCCGGAGTCACCTAGTGCAG”, the binding signal was 12000 fluorescence intensity (a.u.). For the sequence “AGAGTCGGTCACTTTCTCGGTCGGGTTCTCGGGTCACCGTCGGAGTCACCTAGTGCAG”, the binding signal is 11400 fluorescence intensity (a.u.).

With “TTTCTTCTGAATTCGATGTCTGATGCATTTATCGTTTCTCCGGAGTCACCTAGTGCAG”, the binding signal is 13000 fluorescence intensity (a.u.). Turning to “GATAATCCTTGATCCACCATGTCGTGTGAATTTTTGTTCACGGAGTCACCTAGTGCAG”, the binding signal is 8190 fluorescence intensity (a.u.). The value for “TAGTTCAGTGCCGTCTCCTTCATGTAATTCTCTTCACTTTCGGAGTCACCTAGTGCAG” was 9290 fluorescence intensity (a.u.); that for “TCTTACGAGTAGTGGCAATGTCACCCTCACACTTTTTCTTCGGAGTCACCTAGTGCAG” was 8770 fluorescence intensity (a.u.); that for “GTCTTATATGGTTTATAAATTGTTGCCTTTTAAACCTTAACGGAGTCACCTAGTGCAG” was 8310 fluorescence intensity (a.u.). As to “AAATTTTACTTGTTTTTCCATGTCGGCATTGTGCCTCTCACGGAGTCACCTAGTGCAG”, the binding signal is 8400 fluorescence intensity (a.u.).

Consider “TCTCTTCTTTTTGACCTCTTCTCTCTTATCTTCTCTTCTTCGGAGTCACCTAGTGCAG”, for which the binding signal was 9000 fluorescence intensity (a.u.).

For the sequence “TTTCTCAACCGTGCTAGATCTTGCCTCTGCGTAGCGTAAGCGGAGTCACCTAGTGCAG”, the binding signal was 8910 fluorescence intensity (a.u.). Take “ACGCCACACCGCTCTCGCCCGCCGACGCCGCCTCTCCGCACGGAGTCACCTAGTGCAG”: the binding signal was 11900 fluorescence intensity (a.u.).

“CACCTCACCCTCACCCGCACACGCCGACACCCCGACGCGTCGGAGTCACCTAGTGCAG”: the binding signal is 9390 fluorescence intensity (a.u.). For the sequence “GTGCCGTCGCCTCCCCTTCCCCGGCCTGCCCTCGGTTTCGCGGAGTCACCTAGTGCAG”, the binding signal was 9310 fluorescence intensity (a.u.). For “TCATTGCCTCTCCTCACCAAAGGGGCCGTCCTCTTCCATCCGGAGTCACCTAGTGCAG”, the binding signal is 8720 fluorescence intensity (a.u.). For the sequence “ACTCGGAGTCGTCTCCTCCCTCCGTCAGCGCTTCCATCTTCGGAGTCACCTAGTGCAG”, the binding signal was 8880 fluorescence intensity (a.u.). Take “ACCATGTTGAATTTCTTTGCCATTTGCCTCTTGTTTTTTCCGGAGTCACCTAGTGCAG”: the binding signal is 12200 fluorescence intensity (a.u.). “CCTCGCCACCGCACGCGTCGCCCCGGCGCCGCTTCCCCTGCGGAGTCACCTAGTGCAG”: the binding signal is 9290 fluorescence intensity (a.u.).

Regarding “TGGGTATATTTTCACATGCATCCTTTAATTGTCACTTTTGCGGAGTCACCTAGTGCAG”, the binding signal was 11800 fluorescence intensity (a.u.). With “GCACGTACGCCCATCTTTGTCAGTTTTCTCTTGGCACCAACGGAGTCACCTAGTGCAG”, the binding signal is 10500 fluorescence intensity (a.u.).

Consider “AAATACTCCCTCCGTATTTTAATGTATGACACCGTTGACTCGGAGTCACCTAGTGCAG”, for which the binding signal was 10300 fluorescence intensity (a.u.). For the sequence “TTGCGCCTCGCCGCCGATATCTCCCACCCGCGTCGCTGCTCGGAGTCACCTAGTGCAG”, the binding signal is 10500 fluorescence intensity (a.u.). Consider “ACTGTTTACAGTACGGCACAACCGTTTTAAGCTACTTTTCCGGAGTCACCTAGTGCAG”, for which the binding signal was 9360 fluorescence intensity (a.u.). In the case of “CTATGGAGAGAGTATCACATTTTATTCTTCTAGATATACTCGGAGTCACCTAGTGCAG”, the binding signal was 8610 fluorescence intensity (a.u.). Regarding “AGCTAGAATTGACCACAAGCTTGTACTTCCGGCATGTATTCGGAGTCACCTAGTGCAG”, the binding signal is 9270 fluorescence intensity (a.u.). In the case of “GACATAACCACATAACCACACGACCTTGCATTCGGGTTGACGGAGTCACCTAGTGCAG”, the binding signal is 8220 fluorescence intensity (a.u.). Turning to “TCCATAAGAGTCATTCTACTTTCGAAAAGAACATGCCAACCGGAGTCACCTAGTGCAG”, the binding signal is 8120 fluorescence intensity (a.u.).
